# Assay results

Data taken from PubChem BioAssay AID912, deposited by NCATS (2007).

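A cell-based FRET test of anthrax lethal toxin entry, tracked through the 460 nm emission signal; the cell line is not named here.
Each compound was tested as a concentration series from about 0.0005 to 40 µM.
The number is the fitted AC50 of the 460 nm signal alone; lower values mean a more potent effect. A falling signal goes with compounds filed as inhibitors or cytotoxic, a rising one with activators or fluorescent compounds (inferred from the filed classes).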

Values are in µM.
Common to all entries: measured here: 460 nm channel.
This is a side read-out of the assay, for part of the compounds, not drawn at random.
Potencies fitted to partial, single-point or poorly fitting curves are rough.
The first word of each remark tells which way the curve ran; it can be opposite to the aim of the assay.

{"compound": "COCCNC(=O)c1nn(-c2cc(OC)cc(OC)c2)c(=O)c2ccccc12", "AC50 (µM)": "10", "remark": "falling, partial curve"}
{"compound": "CC(C)CCNC(=O)C(c1ccco1)N(CC1CCCO1)C(=O)Cn1nnc2ccccc21", "stereo": "stereo not given", "AC50 (µM)": "10", "remark": "rising, partial curve"}
{"compound": "c1ccc(CCc2ccccc2-c2nc(-c3cccnc3)no2)cc1", "AC50 (µM)": "10", "remark": "falling, partial curve"}
{"compound": "Cc1ccc(CS(=O)(=O)CCC(=O)NCCN2CCCCC2C)cc1", "stereo": "stereo not given", "AC50 (µM)": "3.981", "remark": "rising, single point"}
{"compound": "CCOC(=O)N1CCN(C(=O)c2cc(-c3ccc(OCC)cc3)nc3ccccc23)CC1", "AC50 (µM)": "5.012", "remark": "rising, single point"}
{"compound": "Cc1nnc(SCC(=O)c2c(N)n(C)c(=O)n(C)c2=O)[nH]c1=O", "AC50 (µM)": "25.12", "remark": "rising, single point"}
{"compound": "COCCn1c(=O)c(-c2cccc(F)c2)nc2cncnc21", "AC50 (µM)": "12.59", "remark": "rising, single point"}
{"compound": "COc1ccc(C2C3=C(CC(C)(C)CC3=O)Nc3c2c(=O)[nH]c(=O)n3Cc2ccccc2)cc1", "stereo": "stereo not given", "AC50 (µM)": "3.981", "remark": "rising, partial curve"}
{"compound": "CCN(CC)S(=O)(=O)c1cccc(S(=O)(=O)c2cccc(S(=O)(=O)N(CC)CC)c2)c1", "AC50 (µM)": "10", "remark": "falling, partial curve"}
{"compound": "CC(=O)N1CCC2(CCN(Cc3ccc(C#N)cc3)CC2)CC1", "AC50 (µM)": "0.1", "remark": "falling, partial curve, poor fit"}
{"compound": "N#Cc1cccc(NC(=O)N2CCCC3(CCN(C(=O)c4cc(C(F)(F)F)cc(C(F)(F)F)c4)CC3)C2)c1", "AC50 (µM)": "15.85", "remark": "rising, single point"}
{"compound": "COc1ccc(F)cc1S(=O)(=O)Nc1ccc(C)cc1", "AC50 (µM)": "0.003981", "remark": "rising, full curve"}
{"compound": "CCCCCCSc1cc(C)nc2ncnn12", "AC50 (µM)": "31.62", "remark": "falling, single point"}
{"compound": "CC(C)(C)c1ccc2c(c1)N(CC(=O)O)C(=O)CO2", "AC50 (µM)": "31.62", "remark": "falling, partial curve, poor fit"}
{"compound": "CCOC(=O)c1c(C)n(Cc2ccco2)c2ccc(OC)cc12", "AC50 (µM)": "10", "remark": "falling, partial curve, poor fit"}
{"compound": "COc1ccccc1-c1noc(CCC(=O)Nc2cccc(C(F)(F)F)c2)n1", "AC50 (µM)": "7.943", "remark": "rising, partial curve"}
{"compound": "COc1cc2c(cc1OC)C(=O)N(C)CC2", "AC50 (µM)": "12.59", "remark": "falling, single point"}
{"compound": "Cc1ccc(Nc2nc(OC(C(F)(F)F)C(F)(F)F)nc(N3CCOCC3)n2)cc1", "AC50 (µM)": "5.012", "remark": "falling, single point"}
{"compound": "CCN(CC)CCOc1ccc(Cc2ccccc2)cc1", "AC50 (µM)": "25.12", "remark": "falling, partial curve"}
{"compound": "CC(C)(C)[Si](C)(C)c1c2c(nc3ccc(OCc4ccccc4)cc13)-c1cccc(=O)n1C2", "AC50 (µM)": "10", "remark": "rising, partial curve"}
{"compound": "CN(C)S(=O)(=O)c1ccc(C(=O)Nc2ccc(Cl)cc2)cc1", "AC50 (µM)": "10", "remark": "falling, partial curve"}
{"compound": "O=C(O)CCc1nc(-c2ccccc2)c(-c2ccccc2)o1", "AC50 (µM)": "5.012", "remark": "rising, single point"}
{"compound": "Cn1cc(-c2nc3cncnc3n(Cc3ccc(F)cc3)c2=O)c2ccccc21", "AC50 (µM)": "10", "remark": "rising, partial curve"}
{"compound": "C=CCN1C(=Nc2cccnc2)SCC1(O)c1ccc(C)cc1", "stereo": "stereo not given", "AC50 (µM)": "0.631", "remark": "falling, partial curve"}
{"compound": "CCOC(=O)CN1C(=O)C(C)(C)Oc2ccc(C(=O)Nc3ccccc3)cc21", "AC50 (µM)": "1.259", "remark": "falling, partial curve, poor fit"}
{"compound": "COC(=O)CSc1nnc(-c2ccc(NS(=O)(=O)c3ccccc3)cc2)o1", "AC50 (µM)": "7.943", "remark": "falling, partial curve"}

3 of the entries, repeated:

| Compound | AC50 (µM) | remark |
|---|---|---|
| `CCN(CC)CCOc1ccc(Cc2ccccc2)cc1` | 25.12 | falling, partial curve |
| `C=CCN1C(=Nc2cccnc2)SCC1(O)c1ccc(C)cc1` (stereo not given) | 0.631 | falling, partial curve |
| `N#Cc1cccc(NC(=O)N2CCCC3(CCN(C(=O)c4cc(C(F)(F)F)cc(C(F)(F)F)c4)CC3)C2)c1` | 15.85 | rising, single point |